From publication doi:10.1101/815506
No constants are given. Whether binding was seen depends on the method and setting. Binding seen in cells or lysates may run through a third protein. Some binding calls cover weakened binding; strength is not graded here. Where a sequence is shown, tags or fusion partners need not be part of it.

Protein sequences, listed by entry. Tags and fused reporters are not part of them. Residues count along the entry.
UniProt O15455, residues 24-904: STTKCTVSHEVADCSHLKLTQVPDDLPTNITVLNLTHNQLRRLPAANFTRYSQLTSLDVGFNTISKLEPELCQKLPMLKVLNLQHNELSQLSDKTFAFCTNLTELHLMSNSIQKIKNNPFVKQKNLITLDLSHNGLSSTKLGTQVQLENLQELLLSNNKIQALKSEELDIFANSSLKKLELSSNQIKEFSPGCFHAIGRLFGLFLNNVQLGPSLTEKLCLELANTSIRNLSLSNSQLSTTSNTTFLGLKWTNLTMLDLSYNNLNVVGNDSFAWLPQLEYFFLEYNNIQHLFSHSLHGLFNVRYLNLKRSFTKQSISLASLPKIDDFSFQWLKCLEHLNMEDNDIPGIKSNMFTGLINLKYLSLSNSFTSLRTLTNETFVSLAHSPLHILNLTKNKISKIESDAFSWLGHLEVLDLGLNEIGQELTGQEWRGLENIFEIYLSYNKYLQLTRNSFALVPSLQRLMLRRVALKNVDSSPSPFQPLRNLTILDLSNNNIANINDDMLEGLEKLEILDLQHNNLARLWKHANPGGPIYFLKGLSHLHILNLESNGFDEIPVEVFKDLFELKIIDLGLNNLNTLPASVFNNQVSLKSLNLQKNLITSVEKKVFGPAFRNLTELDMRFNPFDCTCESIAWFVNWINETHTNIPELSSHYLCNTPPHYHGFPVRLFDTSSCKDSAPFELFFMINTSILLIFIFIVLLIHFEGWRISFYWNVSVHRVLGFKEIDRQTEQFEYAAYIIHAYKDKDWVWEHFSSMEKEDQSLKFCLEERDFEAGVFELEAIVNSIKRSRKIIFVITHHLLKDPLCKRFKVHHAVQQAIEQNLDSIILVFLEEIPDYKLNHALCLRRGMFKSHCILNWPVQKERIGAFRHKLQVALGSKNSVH
UniProt Q8N884: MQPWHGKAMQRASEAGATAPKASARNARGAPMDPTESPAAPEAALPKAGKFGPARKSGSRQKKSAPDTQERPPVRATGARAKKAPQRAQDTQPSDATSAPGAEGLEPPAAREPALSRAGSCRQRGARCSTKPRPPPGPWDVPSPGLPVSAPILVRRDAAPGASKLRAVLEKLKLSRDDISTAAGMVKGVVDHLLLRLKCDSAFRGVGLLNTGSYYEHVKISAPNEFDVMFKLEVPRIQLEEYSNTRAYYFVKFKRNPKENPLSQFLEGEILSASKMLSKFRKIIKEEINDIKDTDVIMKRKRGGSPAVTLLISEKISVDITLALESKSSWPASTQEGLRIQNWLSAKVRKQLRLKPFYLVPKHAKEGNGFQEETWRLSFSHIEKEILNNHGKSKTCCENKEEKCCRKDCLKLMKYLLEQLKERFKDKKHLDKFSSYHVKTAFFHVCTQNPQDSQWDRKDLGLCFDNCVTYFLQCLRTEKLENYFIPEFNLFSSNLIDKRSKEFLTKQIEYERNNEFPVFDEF

Assays:
Assay in all cases: co-IP
Flag-RIG-I = target: T1, Flag-RIG-I (UniProt O95786)
T1 sequence: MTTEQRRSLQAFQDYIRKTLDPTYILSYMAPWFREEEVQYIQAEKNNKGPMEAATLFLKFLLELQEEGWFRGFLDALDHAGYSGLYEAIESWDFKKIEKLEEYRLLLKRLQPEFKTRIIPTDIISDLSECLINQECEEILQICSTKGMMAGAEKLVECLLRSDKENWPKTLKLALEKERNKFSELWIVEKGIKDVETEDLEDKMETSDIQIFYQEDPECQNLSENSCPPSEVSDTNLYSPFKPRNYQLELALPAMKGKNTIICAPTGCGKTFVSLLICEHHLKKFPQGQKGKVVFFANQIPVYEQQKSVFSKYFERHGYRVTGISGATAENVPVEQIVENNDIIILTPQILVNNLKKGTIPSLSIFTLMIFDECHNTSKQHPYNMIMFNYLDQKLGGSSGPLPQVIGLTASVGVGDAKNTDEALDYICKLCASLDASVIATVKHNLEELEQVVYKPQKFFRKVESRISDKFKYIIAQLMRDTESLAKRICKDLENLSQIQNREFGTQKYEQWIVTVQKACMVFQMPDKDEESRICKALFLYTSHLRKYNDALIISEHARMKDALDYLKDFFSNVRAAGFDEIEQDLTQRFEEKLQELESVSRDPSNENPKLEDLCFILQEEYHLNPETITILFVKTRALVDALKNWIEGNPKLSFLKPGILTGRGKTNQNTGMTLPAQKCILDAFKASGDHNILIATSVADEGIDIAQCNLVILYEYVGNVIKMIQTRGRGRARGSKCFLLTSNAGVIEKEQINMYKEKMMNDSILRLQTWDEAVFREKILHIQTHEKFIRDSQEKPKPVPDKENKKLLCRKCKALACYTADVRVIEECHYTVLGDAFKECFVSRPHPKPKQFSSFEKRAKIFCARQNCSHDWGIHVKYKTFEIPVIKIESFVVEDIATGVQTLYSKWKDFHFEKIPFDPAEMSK

Flag-TLR3 = Flag-TLR3 (UniProt O15455)
Flag-cGAS = Flag-cGAS (UniProt Q8N884)

Measured: binding

B1: GFP-IRGM (protein, UniProt A1A4Y4 1-181)
chain: MEAMNVEKASADGNLPEVISNIKETLKIVSRTPVNITMAGDSGNGMSTFISALRNTGHEGKASPPTELVKATQRCASYFSSHFSNVVLWDLPGTGSATTTLENYLMEMQFNRYDFIMVASAQFSMNHVMLAKTAEDMGKKFYIVWTKLDMDLSTGALPEVQLLQIRENVLENLQKERVCEY
binds: all assays above
